{"source": "paper PMC7819943", "about": "“Rice protein-binding microarrays: a tool to detect cis-acting elements near promoter regions in rice”", "note": "Some of the results follow."}
{"target": "T1, OsSMF1 (Oryza sativa, UniProt Q6ZLB0 1-436)", "T1 sequence": "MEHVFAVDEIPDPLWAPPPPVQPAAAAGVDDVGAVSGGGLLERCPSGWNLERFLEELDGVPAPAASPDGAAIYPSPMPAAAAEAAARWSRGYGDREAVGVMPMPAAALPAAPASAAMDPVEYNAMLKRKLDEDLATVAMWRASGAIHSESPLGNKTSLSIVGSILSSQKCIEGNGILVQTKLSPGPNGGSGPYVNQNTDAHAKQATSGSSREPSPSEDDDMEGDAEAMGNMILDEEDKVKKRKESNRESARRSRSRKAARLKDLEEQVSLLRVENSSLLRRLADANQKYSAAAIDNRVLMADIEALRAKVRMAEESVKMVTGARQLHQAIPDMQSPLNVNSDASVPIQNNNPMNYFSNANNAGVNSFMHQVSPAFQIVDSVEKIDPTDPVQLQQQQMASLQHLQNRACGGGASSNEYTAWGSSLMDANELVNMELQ", "assay": "protein-binding microarray (RPBM); PBS, 2% BSA, 51.3 ng/ul salmon testes DNA, 50 uM zinc acetate, 200 nM TF, 25 C, 1 h; high values mean tight binding", "details": "protein: recombinant; tags: N-terminal polyhistidine and DsRed monomer fusion (pET32a); chain copies: 2; label: CyDye5-dUTP incorporated in the synthesized complementary strand; 3' TTTTT single-stranded linker to array surface; dsDNA, one strand shown", "in_short": "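In PBS with 2% BSA, salmon testes DNA and 50 µM zinc acetate, 200 nM protein was incubated on a custom Agilent array at 25 °C for 1 h and then washed off. The array had been made double-stranded by primer extension with Cy5-dUTP and blocked with 2% BSA. The proteins were transcription factors fused N-terminally to polyhistidine and DsRed, expressed in E. coli BL21-CodonPlus and purified on Ni–NTA. The binding signal is per-feature fluorescence intensity (arbitrary units) from an Axon 4000B scanner.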"}
{"sequence": "TAATATTGTAGCTGTTGGATAAGGCATGTTTGGTTGAGTACGGAGTCACCTAGTGCAG", "binding signal": "3300 fluorescence intensity (a.u.)"}
{"sequence": "TGAAGAAGAAAGACAAACCTGATTCAGCTCAGCCAACTACCGGAGTCACCTAGTGCAG", "binding signal": "26500 fluorescence intensity (a.u.)"}
{"sequence": "ACGGTGAAAACATTGTGTGGGTGTGGCATCTTATTTCTCCCGGAGTCACCTAGTGCAG", "binding signal": "3210 fluorescence intensity (a.u.)"}
{"sequence": "ATGTCATTTTAACCTTTAATTTGGCGTGTTGACAATTATACGGAGTCACCTAGTGCAG", "binding signal": "3650 fluorescence intensity (a.u.)"}
{"sequence": "TAGTTCTGTCAGTACCAGTTCCACGTCAAAGAAACCACGGCGGAGTCACCTAGTGCAG", "binding signal": "8200 fluorescence intensity (a.u.)"}
{"sequence": "TGAAGGCATGGCCAGGAACCAGGGTCAAAGGAGCAACAAGCGGAGTCACCTAGTGCAG", "binding signal": "3420 fluorescence intensity (a.u.)"}
{"sequence": "CCACCACGCTGCCAGCTTCGCACCCTGTCTCACTGTCGCCCGGAGTCACCTAGTGCAG", "binding signal": "4020 fluorescence intensity (a.u.)"}
{"sequence": "CTATTTGATTCAACAGGTTTCATGTCATCTAGCTTTCTAACGGAGTCACCTAGTGCAG", "binding signal": "3670 fluorescence intensity (a.u.)"}
{"sequence": "CCTTCCAACATGTTTATTATGCATGAGATGTGTGCAACGACGGAGTCACCTAGTGCAG", "binding signal": "3360 fluorescence intensity (a.u.)"}
{"sequence": "AGTTCTAATTTTAATACATAAAAGGACATGTCATGGTCGCCGGAGTCACCTAGTGCAG", "binding signal": "3200 fluorescence intensity (a.u.)"}
{"sequence": "AGTTTCAGTGGGTGTTAGTGTGTCACCATCCATGGCAAGCCGGAGTCACCTAGTGCAG", "binding signal": "7790 fluorescence intensity (a.u.)"}
{"sequence": "AGTATCTCTTTCACAAAAGCCTACGTCATCTTTAAATTAGCGGAGTCACCTAGTGCAG", "binding signal": "5060 fluorescence intensity (a.u.)"}
{"sequence": "CTAAACCCTAGCCACTGCCCGGGCGGAGAGTTGGGGTTTGCGGAGTCACCTAGTGCAG", "binding signal": "27800 fluorescence intensity (a.u.)"}
{"sequence": "CCAACCTGCGGAGCCGTACACGTGTACCACAGGCCGTGGACGGAGTCACCTAGTGCAG", "binding signal": "11100 fluorescence intensity (a.u.)"}
{"sequence": "CCTTCCTGTTCCTGCCTACTGTCAGATGAAGTGGTCATCGCGGAGTCACCTAGTGCAG", "binding signal": "3330 fluorescence intensity (a.u.)"}
{"sequence": "TTCTCTCTCCAACACCCCAACACGGGGATGACACGTCATACGGAGTCACCTAGTGCAG", "binding signal": "18300 fluorescence intensity (a.u.)"}
{"sequence": "ACGGAAGAGAGAGAGAAATTAAACTGATGACGTCACCGAGCGGAGTCACCTAGTGCAG", "binding signal": "19600 fluorescence intensity (a.u.)"}
{"sequence": "GCTACAAATAGTCTGCCACAACTCAGTTGCTTTGCCATTGCGGAGTCACCTAGTGCAG", "binding signal": "3850 fluorescence intensity (a.u.)"}
{"sequence": "TAGGCCGGCGAGTCATCTTCCTTATAATGGATTCCTCAACCGGAGTCACCTAGTGCAG", "binding signal": "24600 fluorescence intensity (a.u.)"}
{"sequence": "GACGGATGGGCCGGATGGAGACCGGTCGATCGAGACGTACCGGAGTCACCTAGTGCAG", "binding signal": "3270 fluorescence intensity (a.u.)"}
{"sequence": "GACGCCACACCAACGTGTGCGCCACCGGTGGCTGCCGGCCCGGAGTCACCTAGTGCAG", "binding signal": "3930 fluorescence intensity (a.u.)"}
{"sequence": "GGCCCCACGTTACCCTTTCGCGCACACGTGTCCCCTATCACGGAGTCACCTAGTGCAG", "binding signal": "8730 fluorescence intensity (a.u.)"}
{"sequence": "TTTGTCGATTTGCGCTGAAAATCGTTTCCCGTCACTGCCACGGAGTCACCTAGTGCAG", "binding signal": "3970 fluorescence intensity (a.u.)"}
{"sequence": "CATATACTACATTGGTGCTACATGTGTTATGTGTACAAAGCGGAGTCACCTAGTGCAG", "binding signal": "3190 fluorescence intensity (a.u.)"}
{"sequence": "CTTCCACTGACATGACACCAAGAGACCACTTTCTTTAATTCGGAGTCACCTAGTGCAG", "binding signal": "3250 fluorescence intensity (a.u.)"}
{"sequence": "GGTAGTGCTGGCGGTGGCAGTTGTGCTGTCGGCGGCGGCGCGGAGTCACCTAGTGCAG", "binding signal": "3240 fluorescence intensity (a.u.)"}
{"sequence": "CTAACTCCGGCGCCACGTCGTCCCCGTCGTCGGCTCGCCGCGGAGTCACCTAGTGCAG", "binding signal": "12400 fluorescence intensity (a.u.)"}
{"sequence": "TTTGCCACTGTCCTACTAGATCTTGGTCTTATTTGAGAAGCGGAGTCACCTAGTGCAG", "binding signal": "3550 fluorescence intensity (a.u.)"}
{"sequence": "ACACCCCGAGCCCGCGTTATAATGGACCTCAACAGAAAGACGGAGTCACCTAGTGCAG", "binding signal": "4090 fluorescence intensity (a.u.)"}
{"sequence": "CACCTTCTGTGCGCTTGCTTTGCGAATTCGGTCGTCGCCGCGGAGTCACCTAGTGCAG", "binding signal": "3290 fluorescence intensity (a.u.)"}
{"sequence": "TAGGTCGGATAGACTGATTCTACAAACACGTAGCCCTAGGCGGAGTCACCTAGTGCAG", "binding signal": "3140 fluorescence intensity (a.u.)"}
{"sequence": "GTCGCGCAGCCGCTGACGTTTCGTTGTGTCGGCTCCACCCCGGAGTCACCTAGTGCAG", "binding signal": "3300 fluorescence intensity (a.u.)"}
{"sequence": "TCCGGCGCCTTACTGGTCATCACCAACTCACTGCTCCTCTCGGAGTCACCTAGTGCAG", "binding signal": "5760 fluorescence intensity (a.u.)"}
{"sequence": "TGGGGTGGTGTGTTGATGCGGCGGGATTCGAGCCCTGGCCCGGAGTCACCTAGTGCAG", "binding signal": "3550 fluorescence intensity (a.u.)"}
{"sequence": "TCTGATCCCACCTGTCATACACGTATTGTGTCTTGGAGTCCGGAGTCACCTAGTGCAG", "binding signal": "10500 fluorescence intensity (a.u.)"}
{"sequence": "ATTTTCAAACATCCGATATGATAGGGACTTAAAAGTTGTTCGGAGTCACCTAGTGCAG", "binding signal": "3140 fluorescence intensity (a.u.)"}
{"sequence": "TGCTGCGTGATTCATATATACTGTCATCTTGCAAAATACACGGAGTCACCTAGTGCAG", "binding signal": "3580 fluorescence intensity (a.u.)"}
{"sequence": "CGCCTGCAAGATTGACTCTTGCATAAAAGCATGCTCTCTCCGGAGTCACCTAGTGCAG", "binding signal": "14500 fluorescence intensity (a.u.)"}
{"sequence": "CCTCCTGCTATAGTGCTATCCAAACTGCGGTCCCGCCGGACGGAGTCACCTAGTGCAG", "binding signal": "3390 fluorescence intensity (a.u.)"}
{"sequence": "TCCTTATTGGTGGAGACCTAGCGTATGTTTCTATCTTTGGCGGAGTCACCTAGTGCAG", "binding signal": "3880 fluorescence intensity (a.u.)"}
{"sequence": "AACTCTCCAGTCTCCACCCACCTCACTCCACAGTCCACACCGGAGTCACCTAGTGCAG", "binding signal": "3150 fluorescence intensity (a.u.)"}
{"sequence": "GAAGGAGCGGCACACGGTGGTGATCCGGCGGCAGCTCGACCGGAGTCACCTAGTGCAG", "binding signal": "3860 fluorescence intensity (a.u.)"}
